In patent publication US20020165140A1:
These are yes or no findings as the source states them, for the method shown. Binding seen in cells or lysates may run through a third protein. Some entries that bind do so weakly or less than the wild type.

Chains of the proteins cited; added tags and fusions are not shown. Lines headed by an entry give the natural chain unless they say otherwise; changes in a name come on top.
UniProt P04386: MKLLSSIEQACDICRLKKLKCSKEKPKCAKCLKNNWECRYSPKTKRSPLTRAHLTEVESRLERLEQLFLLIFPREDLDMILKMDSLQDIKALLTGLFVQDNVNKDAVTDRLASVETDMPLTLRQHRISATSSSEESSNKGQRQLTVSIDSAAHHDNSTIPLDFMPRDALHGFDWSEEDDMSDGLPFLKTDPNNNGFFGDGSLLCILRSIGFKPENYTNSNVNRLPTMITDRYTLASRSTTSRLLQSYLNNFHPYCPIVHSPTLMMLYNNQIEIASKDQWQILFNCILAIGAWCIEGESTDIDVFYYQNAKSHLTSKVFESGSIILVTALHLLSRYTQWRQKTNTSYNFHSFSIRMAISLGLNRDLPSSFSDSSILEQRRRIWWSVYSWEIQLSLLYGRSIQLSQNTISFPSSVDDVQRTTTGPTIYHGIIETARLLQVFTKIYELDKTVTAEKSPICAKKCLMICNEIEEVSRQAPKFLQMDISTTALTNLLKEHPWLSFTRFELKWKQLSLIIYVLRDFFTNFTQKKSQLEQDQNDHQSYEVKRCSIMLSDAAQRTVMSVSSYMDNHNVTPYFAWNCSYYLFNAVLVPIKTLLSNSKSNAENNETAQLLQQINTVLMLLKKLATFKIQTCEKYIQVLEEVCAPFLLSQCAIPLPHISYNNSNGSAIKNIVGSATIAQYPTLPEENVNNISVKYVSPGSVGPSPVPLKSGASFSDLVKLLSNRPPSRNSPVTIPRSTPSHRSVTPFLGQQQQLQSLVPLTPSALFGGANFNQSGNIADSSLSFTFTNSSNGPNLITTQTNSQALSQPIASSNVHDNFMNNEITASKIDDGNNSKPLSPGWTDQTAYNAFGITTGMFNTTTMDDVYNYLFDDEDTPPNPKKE

The substances below were run against Inhibitory PAS Domain Protein (IPAS), in vitro translated (mouse) (assay: coimmunoprecipitation of 35S-IPAS with anti-GAL4 antibody, in vitro translated proteins).

binding	Substance
binds	GAL4-HIF-1α/1-826 (full length) (from UniProt P04386 1-147; Q16665 1-826)
binds	GAL4-HIF-1α/1-652 (from UniProt P04386 1-147; Q16665 1-652)
binds	GAL4-HIF-1α/1-330 (from UniProt P04386 1-147; Q16665 1-330)
